The nature of this data set: general procedure: Fmoc solid-phase peptide synthesis; H-Rink Amide-ChemMatrix; HBTU/HOBt/DIEA. Particulars: RP-HPLC.

Data on five substances can be found in paper PMC4917822 (Scientific Reports, 2016).

End groups of sequences in plain letters are not given here. One purity is given for all peptides; the source may state it once. Where only a bound is given, the exact number is not on record here.

As for CKLAKLAK, the “final HPLC purity” value (whole synthesis) was more than 98%. As to CKLAKLAKKLAKLAK, for the setting “whole synthesis”, the “final HPLC purity” value is given as more than 98%. In the case of GGEQNPIYWARYADWLFTTPLLLLDLALLVDADEGTCG, the “final HPLC purity” value (whole synthesis) is more than 98%. As for pHLIP(WT)-(KLAKLAK)2, the “final HPLC purity” value (conjugation step) is more than 98%. The same measure, in the same setting: in the case of pHLIP(WT)-KLAKLAK it was more than 98%.
